Source: PubChem BioAssay AID1053208 (Peter MacCallum Cancer Centre, 2014)
In all, the deposit lists about 17,000 reagents; below is an unselected part. 788 of them (4.7%) were called active. 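Calls rest on z-score classes alone; an extra cut-off of viability at most 70% of control was not applied to them.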 Further read-outs or replicates are left out here.

- Purpose: 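Synthetic lethal interactions between gene loss and doxorubicin in osteosarcoma cells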 (primary screen)
- System: mouse osteosarcoma cells, early-passage culture from an engineered mouse model of fibroblastic bone tumour
- Reagent: siRNA pool against mouse genes, 40 nM
- Time to read-out: about 120 h (48 h before drug, then 72 h with drug)
- Conditions: doxorubicin 100 nM for 72 h, roughly 30-40% inhibitory dose
- Measured: 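Luminescent ATP signal taken as viability with or without 100 nM doxorubicin for 72 h; mean of two wells set against non-targeting siRNA and turned into robust z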
- Direction: viability z-score with doxorubicin: higher = more viable cells under doxorubicin; viability z-score without drug: higher = more viable cells with knock-down alone
- Hit rule: 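Called active if knock-down leaves viability unchanged without drug (z within -2 to 2) but lowers it with doxorubicin (z at or under -2)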

{"gene symbol": "Rgs12", "combined z-score class": "no change with or without drug", "viability z-score with doxorubicin": 0.9, "viability z-score without drug": -1.18, "Call": "inactive"}
{"gene symbol": "Rpf2", "combined z-score class": "low cell count without drug only", "viability z-score with doxorubicin": -0.56, "viability z-score without drug": -3.54, "Call": "inactive"}
{"gene symbol": "Or5b124", "combined z-score class": "no change with or without drug", "viability z-score with doxorubicin": 0.67, "viability z-score without drug": -1.18, "Call": "inactive"}
{"gene symbol": "Or4k15b", "combined z-score class": "no change with or without drug", "viability z-score with doxorubicin": -0.67, "viability z-score without drug": 0.51, "Call": "inactive"}
{"gene symbol": "Lyn", "combined z-score class": "no change with or without drug", "viability z-score with doxorubicin": 0.34, "viability z-score without drug": 1.85, "Call": "inactive"}
{"gene symbol": "Ccnd1", "combined z-score class": "no change with or without drug", "viability z-score with doxorubicin": -0.67, "viability z-score without drug": -0.51, "Call": "inactive"}
{"gene symbol": "Gpr137", "combined z-score class": "no change with or without drug", "viability z-score with doxorubicin": -1.46, "viability z-score without drug": -1.69, "Call": "inactive"}
{"gene symbol": "Cct4", "combined z-score class": "no change with or without drug", "viability z-score with doxorubicin": 1.57, "viability z-score without drug": -1.35, "Call": "inactive"}
{"gene symbol": "Borcs7", "combined z-score class": "no change with or without drug", "viability z-score with doxorubicin": 1.35, "viability z-score without drug": 1.52, "Call": "inactive"}
{"gene symbol": "Glul", "combined z-score class": "no change with or without drug", "viability z-score with doxorubicin": -1.57, "viability z-score without drug": -0.51, "Call": "inactive"}
{"gene symbol": "Mmp25", "combined z-score class": "no change with or without drug", "viability z-score with doxorubicin": 0.45, "viability z-score without drug": 1.18, "Call": "inactive"}
{"gene symbol": "Noxa1", "combined z-score class": "no change with or without drug", "viability z-score with doxorubicin": -0.9, "viability z-score without drug": -0.51, "Call": "inactive"}
{"gene symbol": "Klra6", "combined z-score class": "no change with or without drug", "viability z-score with doxorubicin": 1.01, "viability z-score without drug": -0.17, "Call": "inactive"}
{"gene symbol": "Lpar2", "combined z-score class": "no change with or without drug", "viability z-score with doxorubicin": 0.9, "viability z-score without drug": -0.67, "Call": "inactive"}
{"gene symbol": "Sox5", "combined z-score class": "no change with or without drug", "viability z-score with doxorubicin": 0.34, "viability z-score without drug": 0.84, "Call": "inactive"}
{"gene symbol": "Smarca1", "combined z-score class": "no change with or without drug", "viability z-score with doxorubicin": 0.67, "viability z-score without drug": 0.17, "Call": "inactive"}
{"gene symbol": "Bcas3", "combined z-score class": "no change with or without drug", "viability z-score with doxorubicin": 1.12, "viability z-score without drug": 0.84, "Call": "inactive"}
{"gene symbol": "Stoml3", "combined z-score class": "no change with or without drug", "viability z-score with doxorubicin": 0.67, "viability z-score without drug": 1.01, "Call": "inactive"}
{"gene symbol": "Dmpk", "combined z-score class": "no change with or without drug", "viability z-score with doxorubicin": 1.57, "viability z-score without drug": 0.51, "Call": "inactive"}
{"gene symbol": "Rps8", "combined z-score class": "low cell count with and without drug", "viability z-score with doxorubicin": -7.19, "viability z-score without drug": -5.9, "Call": "inactive"}
{"gene symbol": "Lrrc72", "combined z-score class": "no change with or without drug", "viability z-score with doxorubicin": -1.12, "viability z-score without drug": -1.18, "Call": "inactive"}
{"gene symbol": "Ptgs2", "combined z-score class": "no change with or without drug", "viability z-score with doxorubicin": 1.12, "viability z-score without drug": 0.84, "Call": "inactive"}
{"gene symbol": "Naip2", "combined z-score class": "no change with or without drug", "viability z-score with doxorubicin": -0.22, "viability z-score without drug": -0.51, "Call": "inactive"}
{"gene symbol": "Dph5", "combined z-score class": "no change with or without drug", "viability z-score with doxorubicin": 0, "viability z-score without drug": -0.51, "Call": "inactive"}
{"gene symbol": "Tank", "combined z-score class": "no change with or without drug", "viability z-score with doxorubicin": -0.67, "viability z-score without drug": -0.84, "Call": "inactive"}
{"gene symbol": "Or8k32", "combined z-score class": "no change with or without drug", "viability z-score with doxorubicin": 0.34, "viability z-score without drug": -0.51, "Call": "inactive"}
{"gene symbol": "Or4c122", "combined z-score class": "high cell count without drug only", "viability z-score with doxorubicin": -0.9, "viability z-score without drug": 2.87, "Call": "inactive"}
{"gene symbol": "Mpst", "combined z-score class": "no change with or without drug", "viability z-score with doxorubicin": 1.12, "viability z-score without drug": -0.17, "Call": "inactive"}
{"gene symbol": "Tmem214", "combined z-score class": "no change with or without drug", "viability z-score with doxorubicin": -0.45, "viability z-score without drug": 0.51, "Call": "inactive"}
{"gene symbol": "Acot10", "combined z-score class": "no change with or without drug", "viability z-score with doxorubicin": 0, "viability z-score without drug": 0.17, "Call": "inactive"}
{"gene symbol": "Or5t16", "combined z-score class": "no change with or without drug", "viability z-score with doxorubicin": -0.22, "viability z-score without drug": 0.51, "Call": "inactive"}
{"gene symbol": "Hmga2", "combined z-score class": "no change with or without drug", "viability z-score with doxorubicin": -0.45, "viability z-score without drug": -1.18, "Call": "inactive"}
{"gene symbol": "Psmb10", "combined z-score class": "no change with or without drug", "viability z-score with doxorubicin": 1.24, "viability z-score without drug": 0.84, "Call": "inactive"}
{"gene symbol": "Pyroxd1", "combined z-score class": "no change with or without drug", "viability z-score with doxorubicin": 0, "viability z-score without drug": -0.34, "Call": "inactive"}
{"gene symbol": "Zkscan3", "combined z-score class": "no change with or without drug", "viability z-score with doxorubicin": 0.45, "viability z-score without drug": 1.69, "Call": "inactive"}
{"gene symbol": "Zfp54", "combined z-score class": "no change with or without drug", "viability z-score with doxorubicin": -0.9, "viability z-score without drug": 0.51, "Call": "inactive"}
